# Experimental data from doi:10.1101/2022.01.31.478434.
# By UniProt entry, the sequences of proteins in these tests, tags left out. Where a name states a change or a piece, a line headed by the entry shows the natural chain unless it says otherwise. Chains listed by the source or under a name are the forms on record and can include a tag or linker. Residues count along the entry.
# UniProt Q13772: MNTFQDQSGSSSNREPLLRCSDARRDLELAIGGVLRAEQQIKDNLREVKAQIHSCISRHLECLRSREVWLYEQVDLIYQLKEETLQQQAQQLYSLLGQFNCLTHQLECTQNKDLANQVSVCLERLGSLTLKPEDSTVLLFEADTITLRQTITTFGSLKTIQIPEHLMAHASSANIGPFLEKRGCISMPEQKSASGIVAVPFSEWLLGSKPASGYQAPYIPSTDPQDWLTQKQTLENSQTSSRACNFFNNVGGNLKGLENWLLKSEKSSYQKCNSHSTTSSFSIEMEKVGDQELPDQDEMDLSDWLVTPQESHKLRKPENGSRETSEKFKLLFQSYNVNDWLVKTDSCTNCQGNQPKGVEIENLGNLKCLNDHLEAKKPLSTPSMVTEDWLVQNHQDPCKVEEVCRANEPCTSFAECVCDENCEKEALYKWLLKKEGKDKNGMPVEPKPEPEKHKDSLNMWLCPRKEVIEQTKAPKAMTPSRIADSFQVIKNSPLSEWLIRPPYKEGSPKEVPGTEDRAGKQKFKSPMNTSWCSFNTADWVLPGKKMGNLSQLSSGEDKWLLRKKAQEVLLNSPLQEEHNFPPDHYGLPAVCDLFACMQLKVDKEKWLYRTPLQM
# N-terminal domain of NCOA4 (NCOA4N) fused with mGFP, wild type: residues 1-182 of Q13772
# N-terminal domain of NCOA4 (NCOA4N) fused with mGFP, I56E (Q13772-1, form named): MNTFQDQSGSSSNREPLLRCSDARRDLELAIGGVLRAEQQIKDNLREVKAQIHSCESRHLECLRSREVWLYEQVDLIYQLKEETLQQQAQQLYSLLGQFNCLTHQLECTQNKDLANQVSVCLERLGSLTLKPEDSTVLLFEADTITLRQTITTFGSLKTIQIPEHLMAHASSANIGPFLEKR
# N-terminal domain of NCOA4 (NCOA4N) fused with mGFP, L63R (Q13772-1, form named): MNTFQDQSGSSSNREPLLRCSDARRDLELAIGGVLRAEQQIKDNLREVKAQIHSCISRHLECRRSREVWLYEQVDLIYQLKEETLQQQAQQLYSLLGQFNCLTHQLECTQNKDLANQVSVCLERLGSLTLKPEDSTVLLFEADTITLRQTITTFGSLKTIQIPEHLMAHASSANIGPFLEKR
# No constants are given. Whether binding was seen depends on the method and setting. Binding seen in cells or lysates may run through a third protein. Some binding calls cover weakened binding; strength is not graded here.
# Legend:
# Test in all cases: co-IP
# [1] = target: 3×FLAG-tagged NCOA4 (full-length) I56E (human) (UniProt Q13772)
# [2] = target: 3×FLAG-tagged NCOA4 (full-length) L63R (human) (UniProt Q13772)
# [3] = target: 3×FLAG-tagged NCOA4 (full-length), wild type (human) (UniProt Q13772)
substance,measurement,setting,value
"N-terminal domain of NCOA4 (NCOA4N) fused with mGFP, I56E (from UniProt Q13772-1 1-182) (domain or fragment)",binding,[1],no binding
"N-terminal domain of NCOA4 (NCOA4N) fused with mGFP, L63R (from UniProt Q13772-1 1-182) (domain or fragment)",binding,[2],no binding
"N-terminal domain of NCOA4 (NCOA4N) fused with mGFP, wild type (from UniProt Q13772-1 1-182) (domain or fragment)",binding,[3],binds
